Laboratory results reported in article doi:10.1101/2024.06.26.24309360.
Positions count from the first letter of the chain named. The exact form of at least one protein or probe is not confirmed. At least one result comes from cells or an extract, where the contact may be indirect. Tags and fusion partners may be left off the protein sequences shown.

Assays:
[1] = target: T1, ThPOK K360N (Homo sapiens) (UniProt O15156); experiment: EMSA; conditions: protein in a lysate after overexpression
T1 sequence (looked up, limits assumed): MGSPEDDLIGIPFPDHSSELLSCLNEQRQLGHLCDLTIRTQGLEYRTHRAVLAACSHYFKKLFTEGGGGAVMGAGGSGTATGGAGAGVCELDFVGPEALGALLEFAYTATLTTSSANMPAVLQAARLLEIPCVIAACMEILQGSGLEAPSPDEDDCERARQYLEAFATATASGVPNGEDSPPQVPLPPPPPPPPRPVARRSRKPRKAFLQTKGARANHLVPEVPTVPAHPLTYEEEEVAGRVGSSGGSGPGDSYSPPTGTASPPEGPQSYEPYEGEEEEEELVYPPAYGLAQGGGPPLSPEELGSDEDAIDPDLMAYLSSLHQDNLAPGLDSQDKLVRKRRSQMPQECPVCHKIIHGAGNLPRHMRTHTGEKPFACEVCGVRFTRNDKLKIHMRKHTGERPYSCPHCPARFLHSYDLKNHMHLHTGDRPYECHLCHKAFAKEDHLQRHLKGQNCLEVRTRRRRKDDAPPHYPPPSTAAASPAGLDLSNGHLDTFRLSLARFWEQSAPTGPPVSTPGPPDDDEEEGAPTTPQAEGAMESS

ThPOK WT (Homo sapiens) = target: T2, ThPOK WT (Homo sapiens) (UniProt O15156); experiment: EMSA supershift; conditions: anti-ThPOK antibody supershift; protein in a lysate after overexpression
T2 sequence (looked up, limits assumed): T1 sequence (looked up, limits assumed) with N360K

Row | Sequence | binding result [1] | binding result (ThPOK WT (Homo sapiens))
1 | CAAATTACAGCCCCATCCCCCGACCGCCCACCATC (double strand) [Variant Probe 1] | binds | –
2 | CAAATTACAGCCCCCTCCACCGACCGCCCACCATC (double strand) [Variant Probe 2] | binds | –
3 | CAAATTACAGCCCCGACCACCGACCGCCCACCATC (double strand) [SOCS1 promoter probe] | – | binds
